No constants are given. Whether binding was seen depends on the method and setting. Binding calls can cover weak binding; strength is not graded here.
Columns and labels:
[1] = molecular target: recombinantly produced activated MASP-1 (CCP1-CCP2-SP domain) (human) (UniProt P48740); test: SDS-PAGE of the covalent complex; activated MASP-1 (CCP1-CCP2-SP) incubated in a 1:1 molar ratio with ultra-pure C1-INH for 2 h at 37°C in PBS; complex formation checked by SDS-PAGE; both purified
[2] = molecular target: MBL-associated serine protease 1 (MASP-1) (human (endogenous in human plasma and serum)); test: ELISA; sandwich ELISA on human citrate, heparin and EDTA plasma and on serum; wells coated with a monoclonal antibody to C1s or MASP-1, bound C1-INH detected with an HRP-labelled monoclonal antibody; serum also activated with zymosan, or on IgM- or mannan-coated wells, with or without EDTA
[3] = molecular target: recombinantly produced activated MASP-1 (CCP1-CCP2-SP domain) (human) (UniProt P48740); test: ELISA; sandwich ELISA on purified preformed complexes in buffer (bought C1s/C1-INH complex, in-house MASP-1/C1-INH complex) used as standards; capture by a monoclonal antibody to C1s or MASP-1, detection by an HRP-labelled anti-C1-INH monoclonal antibody; both purified

Chains of the proteins cited; added tags and fusions are not shown. Lines headed by an entry give the natural chain unless they say otherwise; changes in a name come on top.
UniProt P48740: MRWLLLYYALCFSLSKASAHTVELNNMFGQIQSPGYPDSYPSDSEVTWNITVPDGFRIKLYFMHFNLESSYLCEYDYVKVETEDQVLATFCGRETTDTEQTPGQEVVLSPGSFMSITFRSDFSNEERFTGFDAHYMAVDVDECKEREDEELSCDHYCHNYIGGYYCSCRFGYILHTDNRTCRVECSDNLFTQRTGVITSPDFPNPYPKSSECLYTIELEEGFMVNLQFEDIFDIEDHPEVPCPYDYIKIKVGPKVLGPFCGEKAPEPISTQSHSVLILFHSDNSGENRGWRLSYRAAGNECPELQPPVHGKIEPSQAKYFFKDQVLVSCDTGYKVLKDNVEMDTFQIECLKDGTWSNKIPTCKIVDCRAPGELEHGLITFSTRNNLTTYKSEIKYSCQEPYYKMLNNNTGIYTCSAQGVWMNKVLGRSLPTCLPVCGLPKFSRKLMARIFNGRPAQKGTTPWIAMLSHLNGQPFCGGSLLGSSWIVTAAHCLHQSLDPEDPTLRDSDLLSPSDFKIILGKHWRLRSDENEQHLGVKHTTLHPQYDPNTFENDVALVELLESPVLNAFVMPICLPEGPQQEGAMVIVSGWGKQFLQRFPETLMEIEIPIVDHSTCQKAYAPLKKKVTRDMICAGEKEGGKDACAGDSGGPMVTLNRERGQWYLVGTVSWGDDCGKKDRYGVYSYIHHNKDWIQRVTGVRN

- binding [1]: binds
- binding [2]: binds
- binding [3]: binds
B1: C1 esterase inhibitor (C1-INH) (protein, UniProt P05155 23-500)
chain: NPNATSSSSQDPESLQDRGEGKVATTVISKMLFVEPILEVSSLPTTNSTTNSATKITANTTDEPTTQPTTEPTTQPTIQPTQPTTQLPTDSPTQPTTGSFCPGPVTLCSDLESHSTEAVLGDALVDFSLKLYHAFSAMKKVETNMAFSPFSIASLLTQVLLGAGENTKTNLESILSYPKDFTCVHQALKGFTTKGVTSVSQIFHSPDLAIRDTFVNASRTLYSSSPRVLSNNSDANLELINTWVAKNTNNKISRLLDSLPSDTRLVLLNAIYLSAKWKTTFDPKKTRMEPFHFKNSVIKVPMMNSKKYPVAHFIDQTLKAKVGQLQLSHNLSLVILVPQNLKHRLEDMEQALSPSVFKAIMEKLEMSKFQPTLLTLPRIKVTTSQDMLSIMEKLEFFDFSYDLNLCGLTEDPDLQVSAMQHQTVLELTETGVEAAAASAISVARTLLVFEVQQPFLFVLWDQQHKFPVFMGRVYDPRA

Reference: paper PMC9677118
